Test results published in patent US20080200433A1, “Molecular Chaperone Function Regulator” (priority 2004, published 2008).
At least one compound was matched to its structure with a doubt left.

Tested on: ubiquitinated protein
Assay: Induction of ubiquitinated protein in T-47D cells (Western blot)
Format: cell-based, human
Details: 3 μM, 1, 3, 6 and 24 hr, vs DMSO control (FIG. 7)
Experimental: DMSO (0.1%) was added to the control. After the addition, the cells were collected 1, 3, 6 and 24 hr later and cell extracts were prepared. Expression of ubiquitinated protein in the cell extracts was examined by Western blot using a ubiquitin specific antibody. T/C (%) was determined using the amount of chemical luminescence on a PVDF film due to an HRP-labeled secondary antibody as the ubiquitinated protein expression amount and the expression amount of the cell extract in the control well as 100.

## COC1=C2C[C@@H](C)C[C@H](OC)[C@H](O)[C@@H](C)/C=C(\C)[C@H](OC(N)=O)[C@@H](OC)/C=C\C=C(/C)C(=O)NC(=CC1=O)C2=O [geldanamycin, reference compound]
  amount of ubiquitinated protein: did not occur until after 24 hr
